Assay [1] concerns the target T1, endogenous MDM4 (human (endogenous in H1299)) (UniProt O15151).
T1 sequence: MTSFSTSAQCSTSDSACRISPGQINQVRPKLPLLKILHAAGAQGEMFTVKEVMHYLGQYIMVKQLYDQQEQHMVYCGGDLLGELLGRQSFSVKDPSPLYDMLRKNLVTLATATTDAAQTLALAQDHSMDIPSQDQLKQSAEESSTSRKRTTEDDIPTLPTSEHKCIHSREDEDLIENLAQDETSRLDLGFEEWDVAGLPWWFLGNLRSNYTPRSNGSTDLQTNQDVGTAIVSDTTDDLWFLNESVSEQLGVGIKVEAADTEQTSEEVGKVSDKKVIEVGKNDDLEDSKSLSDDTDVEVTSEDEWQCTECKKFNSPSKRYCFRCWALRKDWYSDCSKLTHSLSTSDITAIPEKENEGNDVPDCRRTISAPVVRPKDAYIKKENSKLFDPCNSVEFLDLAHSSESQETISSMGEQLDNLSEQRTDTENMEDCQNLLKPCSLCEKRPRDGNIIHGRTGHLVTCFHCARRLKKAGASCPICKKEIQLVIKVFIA
The experiment in a line: co-IP; endogenous proteins of p53-null H1299 cells; IP with anti-HBP1, anti-MDM2 or anti-MDM4, blot with MDM2, MDM4 or HBP1 antibody; IP lysis buffer.

Sequences of proteins named here, by UniProt entry; tags and fusion partners are left off.
UniProt Q00987: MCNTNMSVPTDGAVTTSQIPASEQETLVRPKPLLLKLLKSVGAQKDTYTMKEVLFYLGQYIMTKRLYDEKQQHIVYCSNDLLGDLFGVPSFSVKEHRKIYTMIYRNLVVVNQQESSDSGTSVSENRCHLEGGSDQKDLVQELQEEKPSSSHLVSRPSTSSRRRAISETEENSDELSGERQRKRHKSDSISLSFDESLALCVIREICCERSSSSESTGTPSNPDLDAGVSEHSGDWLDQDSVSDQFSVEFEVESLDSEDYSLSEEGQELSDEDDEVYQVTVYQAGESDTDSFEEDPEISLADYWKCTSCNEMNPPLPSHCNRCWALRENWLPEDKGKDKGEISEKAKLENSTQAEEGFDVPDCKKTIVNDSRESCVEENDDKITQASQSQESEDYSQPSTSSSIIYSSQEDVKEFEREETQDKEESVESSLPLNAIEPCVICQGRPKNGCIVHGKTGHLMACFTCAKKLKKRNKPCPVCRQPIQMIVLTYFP

Another assay deals with GST-MDM2 (UniProt Q00987). Kind of assay: pull-down; purified GST-tagged proteins or GST alone on glutathione-Sepharose beads overnight at 4 °C, His-tagged proteins added for 4 h at 4 °C, three washes, elution, western blot; both purified. For orientation: Immunoblotting shows a protein as a band on a membrane.

These are yes or no findings as the source states them, for the method shown. For some assays here: In cells and extracts the contact can be indirect. Some entries that bind do so weakly or less than the wild type. For some assays here: Tags and fused reporters may be left off the sequences shown.

B1: endogenous HBP1 (protein, UniProt O60381 1-514)
chain: MVWEVKTNQMPNAVQKLLLVMDKRASGMNDSLELLQCNENLPSSPGYNSCDEHMELDDLPELQAVQSDPTQSGMYQLSSDVSHQEYPRSSWNQNTSDIPETTYRENEVDWLTELANIATSPQSPLMQCSFYNRSSPVHIIATSKSLHSYARPPPVSSSSKSEPAFPHHHWKEETPVRHERANSESESGIFCMSSLSDDDDLGWCNSWPSTVWHCFLKGTRLCFHKGSNKEWQDVEDFARAEGCDNEEDLQMGIHKGYGSDGLKLLSHEESVSFGESVLKLTFDPGTVEDGLLTVECKLDHPFYVKNKGWSSFYPSLTVVQHGIPCCEVHIGDVCLPPGHPDAINFDDSGVFDTFKSYDFTPMDSSAVYVLSSMARQRRASLSCGGPGGQDFARSGFSKNCGSPGSSQLSSNSLYAKAVKNHSSGTVSATSPNKCKRPMNAFMLFAKKYRVEYTQMYPGKDNRAISVILGDRWKKMKNEERRMYTLEAKALAEEQKRLNPDCWKRKRTNSGSQQH
As to B1, the binding entry in assay [1] is “binds”.

B2: His-tagged HBP1 (protein, UniProt O60381 1-514)
chain: MVWEVKTNQMPNAVQKLLLVMDKRASGMNDSLELLQCNENLPSSPGYNSCDEHMELDDLPELQAVQSDPTQSGMYQLSSDVSHQEYPRSSWNQNTSDIPETTYRENEVDWLTELANIATSPQSPLMQCSFYNRSSPVHIIATSKSLHSYARPPPVSSSSKSEPAFPHHHWKEETPVRHERANSESESGIFCMSSLSDDDDLGWCNSWPSTVWHCFLKGTRLCFHKGSNKEWQDVEDFARAEGCDNEEDLQMGIHKGYGSDGLKLLSHEESVSFGESVLKLTFDPGTVEDGLLTVECKLDHPFYVKNKGWSSFYPSLTVVQHGIPCCEVHIGDVCLPPGHPDAINFDDSGVFDTFKSYDFTPMDSSAVYVLSSMARQRRASLSCGGPGGQDFARSGFSKNCGSPGSSQLSSNSLYAKAVKNHSSGTVSATSPNKCKRPMNAFMLFAKKYRVEYTQMYPGKDNRAISVILGDRWKKMKNEERRMYTLEAKALAEEQKRLNPDCWKRKRTNSGSQQH
As for B2, in the assay with GST-MDM2, the binding entry was “binds”.
